Assay results: patent US20250136584A1, “Benzimidazole Or Azabenzimidazole Compound, Preparation Method Therefor And Use Thereof” (Chengdu Di'Ao Jiuhong Pharmaceutical Factory, priority 2022, published 2025)
Some of these results come from one statement about several compounds together.

Amino acid sequences for entries named in this document (tags omitted). Residues count along the entry.
UniProt P43220, 24-463: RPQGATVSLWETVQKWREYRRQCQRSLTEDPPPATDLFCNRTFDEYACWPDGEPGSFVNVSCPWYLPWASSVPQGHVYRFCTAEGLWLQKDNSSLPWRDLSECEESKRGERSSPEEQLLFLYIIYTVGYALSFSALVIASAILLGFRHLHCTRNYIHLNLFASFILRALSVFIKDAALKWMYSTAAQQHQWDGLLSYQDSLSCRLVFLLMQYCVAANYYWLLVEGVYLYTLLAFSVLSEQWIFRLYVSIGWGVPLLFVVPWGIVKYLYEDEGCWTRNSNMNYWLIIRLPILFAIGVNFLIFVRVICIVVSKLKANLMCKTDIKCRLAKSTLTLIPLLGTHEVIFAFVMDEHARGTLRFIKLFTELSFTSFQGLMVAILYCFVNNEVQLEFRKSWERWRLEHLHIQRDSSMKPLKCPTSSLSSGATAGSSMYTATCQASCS

Molecular target: GLP1R (Homo sapiens, UniProt P43220)
Assay: Agonist activity on GLP1R/CRE-LUC HEK293 cells (luciferase reporter, ONE-Glo)
Type: cell-based
Conditions: times higher than DB02, from Table 1
Protocol: Logarithmically growing GLP1R/CRE-LUC HEK293 cells (purchased from Nanjing Cobioer) were digested, the digested cells were re-suspended in a DMEM+10% FBS culture medium, and a cell density was adjusted to be 3.5*10^5/mL. The cell solution was added into a 96-well cell culture plate by 100 µL/well, and the plate was cultured overnight in an incubator (37° C., 5% CO2).
A compound was dissolved with DMSO to prepare a storage solution at an initial concentration of 10 mM, an initial concentration of the small molecular compound was 0.2 mM, and the compound was diluted by 3 times and 10 points were diluted, while the 11th point was DMSO. Another 96-well plate was taken, added with 95 μL of cell culture solution (DMEM+10% FBS) in each well, then added with 5 μL of to-be-tested samples at different concentrations in each well, mixed evenly, and then added with 11 μL of to-be-tested samples at different concentrations in each well of the cell culture plate, and each sample had two wells. The culture plate was incubated in an incubator for 6 hours (37° C., […]). The 96-well cell culture plate was taken out, added with 100 μL of ONE-Glo™ reagent in each well, and incubated at room temperature for 10 minutes, and a chemiluminescence signal value was measured with an enzyme-labeled instrument. Data were processed and analyzed by Microsoft Excel and Graphpad Prism6 to obtain an EC50 value of the compound.

Activity relative to comparative compound DB02, more than 10 times:
O=C(O)c1ccc2nc(Cc3ccc(-c4cccc(OCc5ccc(Cl)c6cc(F)oc56)n4)cc3F)n(C[C@@H]3CCO3)c2c1 [Compound 21], O=C(O)c1ccc2nc(Cc3ccc(-c4cccc(OCc5ccc(Cl)c6ccoc56)n4)cc3F)n(C[C@@H]3CCO3)c2c1F [Compound 91], O=C(O)c1ccc2nc(Cc3ccc(-c4ccc(F)c(OCc5ccc(Cl)c6cc(F)oc56)n4)cc3F)n(C[C@@H]3CCO3)c2c1 [Compound 94], O=C(O)c1ccc2nc(Cc3c(F)cc(-c4cccc(OCc5ccc(Cl)c6ccoc56)n4)cc3F)n(C[C@@H]3CCO3)c2c1 [Compound 101], O=C(O)c1ccc2nc(Cc3ccc(-c4ccc(F)c(OCc5ccc(F)c6ccoc56)n4)cc3F)n(C[C@@H]3CCO3)c2c1 [Compound 103], O=C(O)c1cc(F)c2nc(Cc3ccc(-c4cccc(OCc5ccc(Cl)c6ccoc56)n4)cc3F)n(C[C@@H]3CCO3)c2c1 [Compound 105]
